Data taken from the supplement of paper PMC10849652.
This is one part of the list.

Protein sequences, listed by entry. Tags and fused reporters are not part of them. Lines headed by an entry give the natural chain unless they say otherwise; changes in a name come on top.
UniProt Q14542: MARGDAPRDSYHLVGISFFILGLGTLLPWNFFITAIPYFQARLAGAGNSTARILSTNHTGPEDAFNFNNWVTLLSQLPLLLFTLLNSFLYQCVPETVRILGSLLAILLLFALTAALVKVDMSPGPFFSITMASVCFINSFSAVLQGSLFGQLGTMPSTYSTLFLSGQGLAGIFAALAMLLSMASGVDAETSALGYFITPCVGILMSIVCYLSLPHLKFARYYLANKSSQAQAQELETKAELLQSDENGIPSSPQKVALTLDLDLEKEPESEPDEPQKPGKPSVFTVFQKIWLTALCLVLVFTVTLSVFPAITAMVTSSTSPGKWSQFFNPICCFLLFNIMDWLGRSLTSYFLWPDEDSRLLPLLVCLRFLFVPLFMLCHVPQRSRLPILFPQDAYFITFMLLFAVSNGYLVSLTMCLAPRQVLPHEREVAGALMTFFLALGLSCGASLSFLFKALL
UniProt O75746: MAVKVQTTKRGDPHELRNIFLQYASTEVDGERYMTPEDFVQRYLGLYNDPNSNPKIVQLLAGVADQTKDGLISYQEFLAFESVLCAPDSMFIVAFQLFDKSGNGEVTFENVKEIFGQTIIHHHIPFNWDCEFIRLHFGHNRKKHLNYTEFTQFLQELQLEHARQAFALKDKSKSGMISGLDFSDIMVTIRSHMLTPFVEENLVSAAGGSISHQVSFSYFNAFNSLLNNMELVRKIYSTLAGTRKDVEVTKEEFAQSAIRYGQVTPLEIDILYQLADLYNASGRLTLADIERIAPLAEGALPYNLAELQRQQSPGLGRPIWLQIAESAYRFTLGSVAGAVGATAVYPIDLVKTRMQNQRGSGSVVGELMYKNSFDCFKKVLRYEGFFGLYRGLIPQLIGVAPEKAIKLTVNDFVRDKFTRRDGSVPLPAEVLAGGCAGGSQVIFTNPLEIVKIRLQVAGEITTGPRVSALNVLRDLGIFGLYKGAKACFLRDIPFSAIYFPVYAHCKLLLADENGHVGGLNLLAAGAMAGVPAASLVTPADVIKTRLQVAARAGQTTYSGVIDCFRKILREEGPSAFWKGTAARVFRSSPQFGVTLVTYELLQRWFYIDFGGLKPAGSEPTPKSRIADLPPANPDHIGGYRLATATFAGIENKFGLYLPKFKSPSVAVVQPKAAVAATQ
UniProt Q8TAD4: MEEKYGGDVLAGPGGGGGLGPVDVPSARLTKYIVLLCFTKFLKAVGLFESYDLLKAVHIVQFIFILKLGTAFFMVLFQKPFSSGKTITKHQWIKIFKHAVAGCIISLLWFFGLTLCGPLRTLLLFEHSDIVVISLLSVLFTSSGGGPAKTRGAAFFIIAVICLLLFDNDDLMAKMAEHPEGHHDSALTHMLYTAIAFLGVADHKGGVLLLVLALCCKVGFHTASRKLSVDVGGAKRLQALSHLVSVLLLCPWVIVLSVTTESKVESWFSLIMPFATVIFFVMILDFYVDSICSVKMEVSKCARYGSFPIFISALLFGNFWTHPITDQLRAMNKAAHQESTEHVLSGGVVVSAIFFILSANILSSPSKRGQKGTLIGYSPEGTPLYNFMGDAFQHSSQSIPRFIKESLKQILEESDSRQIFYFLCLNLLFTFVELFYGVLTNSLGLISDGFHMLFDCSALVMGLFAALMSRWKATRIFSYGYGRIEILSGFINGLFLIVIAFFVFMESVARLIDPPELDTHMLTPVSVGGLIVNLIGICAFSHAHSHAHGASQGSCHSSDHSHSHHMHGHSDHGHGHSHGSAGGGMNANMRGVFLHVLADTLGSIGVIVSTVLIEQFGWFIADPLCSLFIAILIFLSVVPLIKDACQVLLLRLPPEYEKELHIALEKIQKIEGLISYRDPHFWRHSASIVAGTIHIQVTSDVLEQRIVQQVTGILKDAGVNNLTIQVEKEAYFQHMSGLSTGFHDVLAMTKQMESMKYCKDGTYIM
UniProt Q0VAQ4: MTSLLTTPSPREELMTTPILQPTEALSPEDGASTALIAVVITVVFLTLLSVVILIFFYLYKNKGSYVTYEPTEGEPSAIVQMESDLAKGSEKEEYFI
UniProt L0R6Q1: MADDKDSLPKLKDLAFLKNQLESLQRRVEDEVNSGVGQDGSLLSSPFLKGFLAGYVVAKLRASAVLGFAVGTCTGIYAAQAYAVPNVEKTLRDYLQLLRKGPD
UniProt O15198: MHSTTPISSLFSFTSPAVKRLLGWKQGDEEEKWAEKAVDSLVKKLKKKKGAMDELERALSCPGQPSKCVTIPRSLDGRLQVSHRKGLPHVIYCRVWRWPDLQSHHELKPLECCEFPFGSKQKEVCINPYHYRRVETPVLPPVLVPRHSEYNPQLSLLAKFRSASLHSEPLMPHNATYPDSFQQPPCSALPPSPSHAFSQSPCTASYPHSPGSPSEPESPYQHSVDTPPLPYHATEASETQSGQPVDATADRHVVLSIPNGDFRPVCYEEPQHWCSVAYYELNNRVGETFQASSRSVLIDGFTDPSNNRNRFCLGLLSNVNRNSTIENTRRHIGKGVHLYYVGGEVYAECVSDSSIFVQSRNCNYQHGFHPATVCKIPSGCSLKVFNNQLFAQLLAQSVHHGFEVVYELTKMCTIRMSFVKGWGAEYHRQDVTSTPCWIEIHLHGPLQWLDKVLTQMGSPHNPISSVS
UniProt P12236: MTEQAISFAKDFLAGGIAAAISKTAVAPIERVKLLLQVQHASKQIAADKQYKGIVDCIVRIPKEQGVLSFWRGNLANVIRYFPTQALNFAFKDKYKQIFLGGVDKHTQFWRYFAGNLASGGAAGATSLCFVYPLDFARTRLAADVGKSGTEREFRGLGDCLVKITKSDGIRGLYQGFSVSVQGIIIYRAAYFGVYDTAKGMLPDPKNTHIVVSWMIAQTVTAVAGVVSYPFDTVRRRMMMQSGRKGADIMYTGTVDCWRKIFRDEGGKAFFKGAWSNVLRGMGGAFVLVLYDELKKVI
UniProt O43772: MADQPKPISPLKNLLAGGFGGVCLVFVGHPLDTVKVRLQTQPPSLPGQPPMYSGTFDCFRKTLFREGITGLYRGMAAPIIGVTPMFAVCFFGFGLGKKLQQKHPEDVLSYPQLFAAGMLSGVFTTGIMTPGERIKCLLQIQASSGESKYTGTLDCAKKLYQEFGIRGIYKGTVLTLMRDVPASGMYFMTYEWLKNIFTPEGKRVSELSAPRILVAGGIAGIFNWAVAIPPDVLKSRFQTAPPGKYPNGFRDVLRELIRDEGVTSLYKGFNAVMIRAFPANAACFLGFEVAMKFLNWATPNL
UniProt Q9NQQ7: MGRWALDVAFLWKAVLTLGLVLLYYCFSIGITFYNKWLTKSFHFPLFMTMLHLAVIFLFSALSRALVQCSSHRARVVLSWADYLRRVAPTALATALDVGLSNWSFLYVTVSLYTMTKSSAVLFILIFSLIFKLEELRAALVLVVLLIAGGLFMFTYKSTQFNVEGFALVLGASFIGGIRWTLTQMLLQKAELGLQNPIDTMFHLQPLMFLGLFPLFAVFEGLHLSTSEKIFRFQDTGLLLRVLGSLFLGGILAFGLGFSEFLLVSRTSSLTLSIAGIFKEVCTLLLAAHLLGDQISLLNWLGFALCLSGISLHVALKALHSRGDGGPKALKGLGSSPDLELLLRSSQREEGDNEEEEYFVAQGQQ
UniProt Q9UBX3: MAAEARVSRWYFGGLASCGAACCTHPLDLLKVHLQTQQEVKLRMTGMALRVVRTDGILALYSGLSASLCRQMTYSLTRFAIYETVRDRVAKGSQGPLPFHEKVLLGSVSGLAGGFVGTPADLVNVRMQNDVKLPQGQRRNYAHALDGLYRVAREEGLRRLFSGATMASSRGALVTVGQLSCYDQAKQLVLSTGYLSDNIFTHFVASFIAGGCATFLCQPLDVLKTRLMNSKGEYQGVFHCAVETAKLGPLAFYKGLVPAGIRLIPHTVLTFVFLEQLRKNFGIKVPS
UniProt Q9H2D1: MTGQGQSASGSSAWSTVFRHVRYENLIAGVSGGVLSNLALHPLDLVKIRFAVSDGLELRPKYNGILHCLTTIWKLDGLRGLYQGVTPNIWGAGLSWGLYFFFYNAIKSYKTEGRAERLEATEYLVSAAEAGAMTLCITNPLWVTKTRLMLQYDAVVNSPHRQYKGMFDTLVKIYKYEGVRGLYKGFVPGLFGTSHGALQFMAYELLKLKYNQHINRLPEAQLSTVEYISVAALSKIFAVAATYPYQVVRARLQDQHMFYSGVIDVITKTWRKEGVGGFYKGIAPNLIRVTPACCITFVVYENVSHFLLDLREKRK
UniProt Q70HW3: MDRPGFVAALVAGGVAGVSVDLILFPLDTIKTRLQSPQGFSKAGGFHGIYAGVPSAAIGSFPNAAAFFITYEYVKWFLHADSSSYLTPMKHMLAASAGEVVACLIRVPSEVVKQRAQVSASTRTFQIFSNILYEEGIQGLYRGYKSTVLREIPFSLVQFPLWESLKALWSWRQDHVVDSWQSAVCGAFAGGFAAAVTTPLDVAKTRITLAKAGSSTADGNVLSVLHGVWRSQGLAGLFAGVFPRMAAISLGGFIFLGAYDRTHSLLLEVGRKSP
UniProt P31641: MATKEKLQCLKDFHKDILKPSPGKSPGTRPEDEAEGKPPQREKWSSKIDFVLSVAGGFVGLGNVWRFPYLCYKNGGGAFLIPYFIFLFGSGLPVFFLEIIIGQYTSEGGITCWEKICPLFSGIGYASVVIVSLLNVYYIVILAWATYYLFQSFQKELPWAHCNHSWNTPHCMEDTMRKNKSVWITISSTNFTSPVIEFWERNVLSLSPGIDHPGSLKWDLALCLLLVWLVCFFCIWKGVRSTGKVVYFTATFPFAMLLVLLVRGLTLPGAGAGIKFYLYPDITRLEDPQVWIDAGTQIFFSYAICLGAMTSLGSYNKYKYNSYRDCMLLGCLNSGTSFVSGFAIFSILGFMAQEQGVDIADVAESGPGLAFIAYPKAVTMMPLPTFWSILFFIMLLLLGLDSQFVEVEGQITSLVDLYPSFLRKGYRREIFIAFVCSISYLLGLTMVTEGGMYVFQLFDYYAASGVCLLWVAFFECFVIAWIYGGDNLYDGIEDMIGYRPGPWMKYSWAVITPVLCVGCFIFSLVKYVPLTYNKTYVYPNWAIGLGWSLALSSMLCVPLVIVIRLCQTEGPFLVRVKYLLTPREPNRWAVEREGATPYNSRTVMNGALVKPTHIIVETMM
UniProt Q9HC21: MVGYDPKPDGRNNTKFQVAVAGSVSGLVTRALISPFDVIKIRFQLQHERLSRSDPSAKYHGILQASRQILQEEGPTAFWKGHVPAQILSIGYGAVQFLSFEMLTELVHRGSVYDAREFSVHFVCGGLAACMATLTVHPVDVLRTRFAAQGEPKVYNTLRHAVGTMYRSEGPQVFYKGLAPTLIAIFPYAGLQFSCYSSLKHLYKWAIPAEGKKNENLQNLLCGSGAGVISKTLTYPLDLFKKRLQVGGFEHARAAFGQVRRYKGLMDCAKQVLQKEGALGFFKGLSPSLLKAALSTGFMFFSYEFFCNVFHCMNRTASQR
UniProt Q9BRY0: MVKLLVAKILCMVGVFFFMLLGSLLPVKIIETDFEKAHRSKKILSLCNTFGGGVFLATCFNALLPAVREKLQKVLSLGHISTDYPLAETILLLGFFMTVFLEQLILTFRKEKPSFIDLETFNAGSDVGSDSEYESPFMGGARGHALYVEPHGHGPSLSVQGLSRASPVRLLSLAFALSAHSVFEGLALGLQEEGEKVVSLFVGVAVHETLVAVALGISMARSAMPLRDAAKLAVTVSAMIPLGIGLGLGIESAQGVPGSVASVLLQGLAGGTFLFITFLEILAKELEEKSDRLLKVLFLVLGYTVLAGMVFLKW
UniProt Q9NVC3: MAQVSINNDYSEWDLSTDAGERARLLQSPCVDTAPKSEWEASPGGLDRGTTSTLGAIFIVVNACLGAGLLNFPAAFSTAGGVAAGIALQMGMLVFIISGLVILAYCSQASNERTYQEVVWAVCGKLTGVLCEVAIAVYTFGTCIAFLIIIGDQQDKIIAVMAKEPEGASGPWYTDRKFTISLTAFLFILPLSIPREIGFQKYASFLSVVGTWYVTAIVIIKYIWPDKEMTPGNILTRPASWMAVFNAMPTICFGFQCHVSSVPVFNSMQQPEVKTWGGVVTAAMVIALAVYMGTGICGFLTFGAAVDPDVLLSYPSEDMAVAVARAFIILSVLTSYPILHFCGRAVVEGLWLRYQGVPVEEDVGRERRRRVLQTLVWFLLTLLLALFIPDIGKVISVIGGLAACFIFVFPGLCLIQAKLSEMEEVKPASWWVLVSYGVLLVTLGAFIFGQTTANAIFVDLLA
UniProt P16260: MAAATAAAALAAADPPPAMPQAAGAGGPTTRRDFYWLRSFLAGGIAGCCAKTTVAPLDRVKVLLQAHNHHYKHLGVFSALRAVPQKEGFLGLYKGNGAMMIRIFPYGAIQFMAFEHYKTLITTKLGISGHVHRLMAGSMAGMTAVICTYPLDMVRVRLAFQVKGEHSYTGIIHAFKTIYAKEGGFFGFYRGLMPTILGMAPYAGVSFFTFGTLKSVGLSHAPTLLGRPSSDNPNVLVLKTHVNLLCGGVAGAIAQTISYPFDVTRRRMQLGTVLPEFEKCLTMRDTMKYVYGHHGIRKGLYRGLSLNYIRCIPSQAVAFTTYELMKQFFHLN

Experiments:
Experiment in all cases: log2 fold change, soluble protein after heating vs DMSO (PISA); higher = thermal stabilisation; K562 lysate, 10 uM; active = over 0.2 and 3.5 SD of the protein, either way, in both replicates (recomputed)
[1] = compound: Cc1cn(-c2cc(NC(=O)c3ccc(C)c(Nc4nccc(-c5cccnc5)n4)c3)cc(C(F)(F)F)c2)cn1 [nilotinib]
Summary of the method: (§1)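 The values are log-two fold changes in thermal stability compared with solvent controls and come from duplicates. They were obtained by TMTpro 16plex LC-MS/MS, with channel sums equalised, on the supernatant after 21,000xg for 90 min. That supernatant came from crude K562 extract at 1 mg/mL protein treated with 10 μM compound for 30 min, heated for 3 min across 48°C-58°C, pooled and brought to 0.5% NP-40 at 4°C.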

[2] = compound: Cc1nc(Nc2n[nH]c3c2CN(C(=O)N[C@H](CN(C)C)c2ccccc2)C3(C)C)c2sccc2n1
Summary of the method: as §1

[3] = compound: Cc1nc(Nc2ncc(C(=O)Nc3c(C)cccc3Cl)s2)cc(N2CCN(CCO)CC2)n1 [dasatinib]
Summary of the method: as §1

[4] = compound: Cc1ncc(-c2ccnc(Nc3ccc(S(C)(=O)=O)cc3)n2)n1C(C)C
Summary of the method: as §1

[5] = compound: Cn1cc(-c2ccc3c(c2)CCN3C(=O)Cc2cccc(C(F)(F)F)c2)c2c(N)ncnc21
Summary of the method: as §1

[6] = compound: Cn1cc(CNCC2CCN(c3ncc(C(=O)NO)cn3)CC2)c2ccccc21 [quisinostat]
Summary of the method: as §1

[7] = compound: Cn1cncc1[C@@](N)(c1ccc(Cl)cc1)c1ccc2c(c1)c(-c1cccc(Cl)c1)cc(=O)n2C [tipifarnib]
Summary of the method: as §1

[8] = compound: NC(=O)Nc1cc(-c2cccc(F)c2)sc1C(=O)N[C@H]1CCCNC1
Summary of the method: as §1

[9] = compound: NC(=O)c1cnc(N[C@@H]2CCCC[C@@H]2N)nc1Nc1cccc(-n2nccn2)c1
Summary of the method: as §1

[10] = compound: NC1(c2ccc(-c3nc4ccn5c(=O)[nH]nc5c4cc3-c3ccccc3)cc2)CCC1
Summary of the method: as §1

Measured: log2 fold change

SLC29A2 (UniProt Q14542)
inactive: [1] 0.083 | [2] 0.095 | [3] 0.029 | [4] 0.058 | [5] 0.037 | [6] -0.242 | [7] 0.048 | [8] 0.088 | [9] -0.037 | [10] -0.021

SLC25A12 (UniProt O75746)
inactive: [1] 0.002 | [2] -0.004 | [3] 0.037 | [4] 0.012 | [5] -0.003 | [6] 0.101 | [7] 0.014 | [8] 0.005 | [9] -0.011 | [10] 0.006

SLC30A5 (UniProt Q8TAD4)
inactive: [1] -0.028 | [2] 0.009 | [3] 0 | [4] 0.029 | [5] -0.045 | [6] -0.003 | [7] -0.053 | [8] 0.009 | [9] -0.019 | [10] -0.059

SMAGP (UniProt Q0VAQ4)
inactive: [1] -0.018 | [2] 0.05 | [3] 0 | [4] 0.161 | [5] 0.005 | [6] -0.004 | [7] -0.084 | [8] 0.1 | [9] 0.026 | [10] 0.028

SLC35A4 (UniProt L0R6Q1)
inactive: [1] 0.126 | [2] 0.063 | [3] 0.024 | [4] 0.132 | [5] -0.01 | [6] -0.061 | [7] -0.025 | [8] -0.016 | [9] -0.035 | [10] -0.077

SMAD9 (UniProt O15198)
inactive: [1] 0.066 | [2] 0.054 | [3] 0.062 | [4] -0.028 | [5] -0.038 | [6] -0.036 | [7] -0.021 | [8] 0.016 | [9] 0.02 | [10] -0.065

SLC25A6 (UniProt P12236)
inactive: [1] 0.033 | [2] 0.039 | [3] 0.019 | [4] 0.016 | [5] -0.029 | [6] 0.02 | [7] 0.047 | [8] 0.034 | [9] -0.012 | [10] 0.007

SLC25A20 (UniProt O43772)
inactive: [1] 0.018 | [2] 0.004 | [3] 0.036 | [4] 0.026 | [5] 0.053 | [6] -0.055 | [7] -0.025 | [8] -0.015 | [9] -0.029 | [10] 0.005

SLC35C2 isoform 3 (UniProt Q9NQQ7)
inactive: [1] -0.09 | [2] -0.054 | [3] 0.066 | [4] -0.018 | [5] 0.001 | [6] 0.022 | [7] 0.152 | [8] -0.021 | [9] -0.046 | [10] 0.05

SLC25A10 isoform 2 (UniProt Q9UBX3)
inactive: [1] 0 | [2] 0.006 | [3] -0.024 | [4] -0.017 | [5] -0.028 | [6] -0.003 | [7] -0.013 | [8] 0.046 | [9] -0.02 | [10] -0.027

SLC25A32 (UniProt Q9H2D1)
inactive: [1] 0.007 | [2] 0.033 | [3] 0.011 | [4] 0.043 | [5] -0.055 | [6] -0.015 | [7] 0.016 | [8] 0.023 | [9] -0.029 | [10] -0.026

SLC25A26 (UniProt Q70HW3)
inactive: [1] -0.066 | [2] 0.057 | [3] 0.006 | [4] -0.042 | [5] -0.013 | [6] -0.184 | [7] -0.028 | [8] 0.125 | [9] 0.062 | [10] -0.056

SLC6A6 (UniProt P31641)
inactive: [1] 0.027 | [2] 0.004 | [3] -0.077 | [4] -0.004 | [5] 0.008 | [6] -0.073 | [7] -0.021 | [8] 0.039 | [9] -0.006 | [10] 0

SLC25A19 (UniProt Q9HC21)
inactive: [1] -0.007 | [2] 0 | [3] 0.057 | [4] 0.037 | [5] 0.026 | [6] 0.044 | [7] 0.007 | [8] -0.008 | [9] -0.009 | [10] 0.027

SLC39A3 (UniProt Q9BRY0)
inactive: [1] 0.03 | [2] 0.054 | [3] -0.02 | [4] 0.045 | [5] 0.059 | [6] -0.155 | [7] 0.061 | [8] 0.066 | [9] 0.007 | [10] -0.071

2 records picked at random from the list so far, as already listed:
SLC25A20 (UniProt O43772)
inactive: [1] 0.018 | [2] 0.004 | [3] 0.036 | [4] 0.026 | [5] 0.053 | [6] -0.055 | [7] -0.025 | [8] -0.015 | [9] -0.029 | [10] 0.005

SLC30A5 (UniProt Q8TAD4)
inactive: [1] -0.028 | [2] 0.009 | [3] 0 | [4] 0.029 | [5] -0.045 | [6] -0.003 | [7] -0.053 | [8] 0.009 | [9] -0.019 | [10] -0.059

More records:

SLC38A7 (UniProt Q9NVC3)
inactive: [1] 0.046 | [2] 0.012 | [3] 0.047 | [4] -0.097 | [5] 0.016 | [6] -0.059 | [7] 0.03 | [8] -0.005 | [9] 0.034 | [10] 0.032

SLC7A6 (UniProt Q92536)
inactive: [1] -0.143 | [2] 0.272 | [3] 0.025 | [4] -0.098 | [5] -0.006 | [6] -0.022 | [7] 0.178 | [8] -0.012 | [9] -0.007 | [10] -0.074

SLC25A16 (UniProt P16260)
inactive: [1] 0.245 | [2] -0.043 | [4] 0.056 | [6] -0.001 | [7] 0.171 | [8] 0.039 | [10] 0.015
